According to the supplement of paper PMC6411743:
± gives the standard deviation of the averaged measurements. Some of the results follow.

Sequences of proteins named here, by UniProt entry; tags and fusion partners are left off. A change or cut given only in a name is not applied to a line headed by its entry.
UniProt O75153: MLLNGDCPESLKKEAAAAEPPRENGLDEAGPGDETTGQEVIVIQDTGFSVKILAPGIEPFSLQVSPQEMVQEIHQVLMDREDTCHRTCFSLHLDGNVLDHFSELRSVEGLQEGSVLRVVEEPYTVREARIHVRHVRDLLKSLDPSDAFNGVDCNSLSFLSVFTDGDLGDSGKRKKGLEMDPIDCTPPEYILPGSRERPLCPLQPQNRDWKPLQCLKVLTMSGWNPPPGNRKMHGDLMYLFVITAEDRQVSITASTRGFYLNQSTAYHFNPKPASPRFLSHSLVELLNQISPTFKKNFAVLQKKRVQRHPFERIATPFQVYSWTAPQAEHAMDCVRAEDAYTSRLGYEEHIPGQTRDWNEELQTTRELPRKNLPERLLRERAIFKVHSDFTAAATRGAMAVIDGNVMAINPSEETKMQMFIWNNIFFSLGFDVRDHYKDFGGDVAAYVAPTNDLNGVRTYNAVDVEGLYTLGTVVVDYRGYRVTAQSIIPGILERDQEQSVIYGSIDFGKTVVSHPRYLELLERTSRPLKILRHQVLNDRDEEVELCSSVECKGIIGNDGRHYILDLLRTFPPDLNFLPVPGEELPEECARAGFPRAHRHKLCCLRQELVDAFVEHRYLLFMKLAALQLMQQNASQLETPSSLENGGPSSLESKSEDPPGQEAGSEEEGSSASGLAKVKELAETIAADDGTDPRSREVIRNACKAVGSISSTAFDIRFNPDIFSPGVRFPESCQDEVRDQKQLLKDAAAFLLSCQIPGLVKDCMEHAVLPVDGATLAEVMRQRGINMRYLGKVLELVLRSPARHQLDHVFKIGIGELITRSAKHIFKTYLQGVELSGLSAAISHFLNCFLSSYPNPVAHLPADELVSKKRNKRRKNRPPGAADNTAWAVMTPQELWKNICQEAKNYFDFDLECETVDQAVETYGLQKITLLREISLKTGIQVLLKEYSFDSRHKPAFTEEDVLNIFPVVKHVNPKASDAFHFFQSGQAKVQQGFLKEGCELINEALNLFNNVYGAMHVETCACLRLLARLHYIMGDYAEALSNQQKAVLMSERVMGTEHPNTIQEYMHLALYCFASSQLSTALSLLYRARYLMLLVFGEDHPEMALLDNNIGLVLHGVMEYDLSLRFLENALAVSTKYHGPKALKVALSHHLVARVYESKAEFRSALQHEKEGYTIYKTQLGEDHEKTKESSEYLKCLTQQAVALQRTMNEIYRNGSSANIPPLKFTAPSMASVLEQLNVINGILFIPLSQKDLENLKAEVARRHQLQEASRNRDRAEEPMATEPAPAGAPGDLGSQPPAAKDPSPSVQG
UniProt O95376: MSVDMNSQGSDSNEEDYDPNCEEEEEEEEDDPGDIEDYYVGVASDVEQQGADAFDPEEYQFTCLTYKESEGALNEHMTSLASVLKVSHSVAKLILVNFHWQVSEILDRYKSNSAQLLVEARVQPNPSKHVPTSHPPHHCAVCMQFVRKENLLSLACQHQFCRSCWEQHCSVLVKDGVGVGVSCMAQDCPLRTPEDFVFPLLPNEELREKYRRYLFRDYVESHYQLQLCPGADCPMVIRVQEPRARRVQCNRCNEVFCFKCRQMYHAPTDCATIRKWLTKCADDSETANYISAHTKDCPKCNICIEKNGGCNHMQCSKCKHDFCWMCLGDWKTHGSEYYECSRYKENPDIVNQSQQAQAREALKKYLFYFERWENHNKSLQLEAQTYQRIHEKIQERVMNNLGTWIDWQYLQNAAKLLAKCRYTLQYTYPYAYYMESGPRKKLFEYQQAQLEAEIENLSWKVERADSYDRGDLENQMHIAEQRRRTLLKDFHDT
UniProt O75151: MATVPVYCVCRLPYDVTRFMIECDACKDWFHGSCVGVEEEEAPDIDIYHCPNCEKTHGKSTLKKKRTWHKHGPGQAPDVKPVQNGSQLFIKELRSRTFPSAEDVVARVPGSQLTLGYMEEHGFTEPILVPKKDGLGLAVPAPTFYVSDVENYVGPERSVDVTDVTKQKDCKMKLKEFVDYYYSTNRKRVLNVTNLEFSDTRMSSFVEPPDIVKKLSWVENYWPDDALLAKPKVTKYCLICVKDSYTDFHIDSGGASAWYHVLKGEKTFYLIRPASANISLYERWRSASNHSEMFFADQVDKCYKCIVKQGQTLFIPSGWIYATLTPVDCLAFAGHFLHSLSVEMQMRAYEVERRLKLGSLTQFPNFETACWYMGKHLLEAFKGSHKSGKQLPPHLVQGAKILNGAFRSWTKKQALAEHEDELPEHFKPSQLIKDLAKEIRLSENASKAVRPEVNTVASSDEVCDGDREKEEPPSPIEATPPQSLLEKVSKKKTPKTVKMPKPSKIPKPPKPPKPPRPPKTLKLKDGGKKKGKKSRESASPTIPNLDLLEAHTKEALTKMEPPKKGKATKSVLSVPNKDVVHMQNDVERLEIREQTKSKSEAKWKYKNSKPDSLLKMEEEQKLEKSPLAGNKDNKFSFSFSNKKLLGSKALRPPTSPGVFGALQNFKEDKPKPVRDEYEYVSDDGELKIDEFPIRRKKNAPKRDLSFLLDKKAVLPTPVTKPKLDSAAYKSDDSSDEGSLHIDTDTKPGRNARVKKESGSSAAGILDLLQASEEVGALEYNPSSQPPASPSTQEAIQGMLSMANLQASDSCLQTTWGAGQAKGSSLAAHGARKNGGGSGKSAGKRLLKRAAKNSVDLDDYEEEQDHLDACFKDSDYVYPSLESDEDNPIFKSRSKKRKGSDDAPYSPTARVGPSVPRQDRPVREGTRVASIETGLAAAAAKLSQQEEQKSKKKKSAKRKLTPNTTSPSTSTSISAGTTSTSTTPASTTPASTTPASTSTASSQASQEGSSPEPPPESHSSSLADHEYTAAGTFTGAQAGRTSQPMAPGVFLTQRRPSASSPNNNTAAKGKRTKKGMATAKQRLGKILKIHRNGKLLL
UniProt O75995: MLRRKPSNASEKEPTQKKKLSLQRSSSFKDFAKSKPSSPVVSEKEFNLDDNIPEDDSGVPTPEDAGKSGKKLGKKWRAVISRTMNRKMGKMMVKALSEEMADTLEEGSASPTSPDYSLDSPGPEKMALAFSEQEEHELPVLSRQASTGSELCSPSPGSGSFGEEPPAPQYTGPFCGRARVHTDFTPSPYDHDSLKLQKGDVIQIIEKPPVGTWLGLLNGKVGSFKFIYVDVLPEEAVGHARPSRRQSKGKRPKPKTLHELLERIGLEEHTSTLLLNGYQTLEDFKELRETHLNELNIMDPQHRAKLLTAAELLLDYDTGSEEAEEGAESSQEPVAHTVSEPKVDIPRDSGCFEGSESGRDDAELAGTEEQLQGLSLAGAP
UniProt O75643, whole entry: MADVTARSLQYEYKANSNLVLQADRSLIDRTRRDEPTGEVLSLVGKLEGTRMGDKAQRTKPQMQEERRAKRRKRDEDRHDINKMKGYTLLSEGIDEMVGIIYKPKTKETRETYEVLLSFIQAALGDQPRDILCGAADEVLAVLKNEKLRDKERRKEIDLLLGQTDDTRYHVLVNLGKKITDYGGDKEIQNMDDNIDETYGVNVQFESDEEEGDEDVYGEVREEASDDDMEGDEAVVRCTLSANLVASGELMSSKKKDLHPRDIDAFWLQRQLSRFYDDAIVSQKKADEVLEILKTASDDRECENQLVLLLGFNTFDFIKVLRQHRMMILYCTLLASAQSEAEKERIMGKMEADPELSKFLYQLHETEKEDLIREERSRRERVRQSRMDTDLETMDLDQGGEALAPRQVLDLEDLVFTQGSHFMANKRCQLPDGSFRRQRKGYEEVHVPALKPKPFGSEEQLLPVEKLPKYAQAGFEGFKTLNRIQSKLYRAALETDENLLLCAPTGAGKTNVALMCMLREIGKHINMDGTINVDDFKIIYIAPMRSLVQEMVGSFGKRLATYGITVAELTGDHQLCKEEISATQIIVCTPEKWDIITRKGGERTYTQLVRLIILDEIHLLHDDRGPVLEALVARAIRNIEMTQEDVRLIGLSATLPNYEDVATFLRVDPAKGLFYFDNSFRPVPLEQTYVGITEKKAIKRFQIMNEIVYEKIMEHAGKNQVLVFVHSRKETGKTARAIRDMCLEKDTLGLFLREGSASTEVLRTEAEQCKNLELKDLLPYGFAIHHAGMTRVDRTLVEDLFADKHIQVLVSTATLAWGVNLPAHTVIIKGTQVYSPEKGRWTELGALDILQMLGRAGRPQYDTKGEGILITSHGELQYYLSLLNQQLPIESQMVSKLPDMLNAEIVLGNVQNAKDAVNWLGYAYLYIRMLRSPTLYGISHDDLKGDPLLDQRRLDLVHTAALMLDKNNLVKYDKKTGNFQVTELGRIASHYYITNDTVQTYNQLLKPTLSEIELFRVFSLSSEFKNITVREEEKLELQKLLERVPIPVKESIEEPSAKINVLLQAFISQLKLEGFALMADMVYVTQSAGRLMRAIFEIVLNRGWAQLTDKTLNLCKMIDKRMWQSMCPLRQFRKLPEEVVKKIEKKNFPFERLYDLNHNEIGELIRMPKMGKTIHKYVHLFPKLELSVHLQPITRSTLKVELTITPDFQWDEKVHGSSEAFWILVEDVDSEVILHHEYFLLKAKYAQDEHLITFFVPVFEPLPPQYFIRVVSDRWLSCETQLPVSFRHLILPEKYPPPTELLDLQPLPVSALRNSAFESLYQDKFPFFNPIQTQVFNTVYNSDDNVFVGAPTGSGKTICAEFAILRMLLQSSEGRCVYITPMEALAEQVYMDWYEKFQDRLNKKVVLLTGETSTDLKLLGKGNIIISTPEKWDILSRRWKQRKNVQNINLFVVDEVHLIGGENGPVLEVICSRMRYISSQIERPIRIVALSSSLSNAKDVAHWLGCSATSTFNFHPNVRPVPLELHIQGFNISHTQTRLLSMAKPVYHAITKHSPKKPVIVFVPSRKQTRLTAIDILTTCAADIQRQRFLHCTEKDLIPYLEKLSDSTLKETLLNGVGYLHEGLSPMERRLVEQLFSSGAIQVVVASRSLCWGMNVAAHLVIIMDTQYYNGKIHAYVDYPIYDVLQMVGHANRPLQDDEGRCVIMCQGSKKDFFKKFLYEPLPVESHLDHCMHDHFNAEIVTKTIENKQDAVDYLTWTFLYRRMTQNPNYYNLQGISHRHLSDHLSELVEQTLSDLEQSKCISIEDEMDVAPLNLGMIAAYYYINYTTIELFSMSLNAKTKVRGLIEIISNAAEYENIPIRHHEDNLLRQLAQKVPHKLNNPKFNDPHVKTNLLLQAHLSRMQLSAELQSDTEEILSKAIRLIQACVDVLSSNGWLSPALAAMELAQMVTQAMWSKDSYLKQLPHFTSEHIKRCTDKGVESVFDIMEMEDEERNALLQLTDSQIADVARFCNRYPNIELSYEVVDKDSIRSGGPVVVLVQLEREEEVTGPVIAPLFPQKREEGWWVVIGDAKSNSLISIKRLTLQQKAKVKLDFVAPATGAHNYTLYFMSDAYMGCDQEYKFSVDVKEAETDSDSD

Compound: Nc1nc2c(ncn2[C@@H]2O[C@H](COP(=O)(O)OP(=O)(O)OP(=O)(O)O)[C@@H](O)[C@H]2O)c(=O)[nH]1 [guanosine triphosphate]
Assay: NP40-soluble protein abundance relative to vehicle (solubility fold change) (ratio); higher = more soluble protein in presence of GTP
Description: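 Solubility proteome profiling in Jurkat crude lysate. Lysate was treated with Mg-GTP (0.1-10 mM) for 10 min at room temperature and 3 min at 37 °C, then solubilised with 0.8% NP40 and benzonase, followed by ultracentrifugation. Proteins were quantified by TMT10 LC-MS/MS; the value is the NP40-soluble abundance relative to the NP40-processed vehicle, from 3 independent experiments.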

Target: UniProt O75153 and related entries
- NP40-soluble protein abundance (concentration: 0.1mM): 1.04 ± 0.021
- NP40-soluble protein abundance (concentration: 0.5mM): 1.04 ± 0.037
- NP40-soluble protein abundance (concentration: 1mM): 0.991 ± 0.036
- NP40-soluble protein abundance (concentration: 2mM): 0.994 ± 0.04
- NP40-soluble protein abundance (concentration: 4mM): 0.976 ± 0.045
- NP40-soluble protein abundance (concentration: 6mM): 0.954 ± 0.036
- NP40-soluble protein abundance (concentration: 8mM): 0.944 ± 0.047
- NP40-soluble protein abundance (concentration: 10mM): 0.933 ± 0.046

Target: ARIH2 (UniProt O95376)
- NP40-soluble protein abundance (concentration: 0.1mM): 0.993 ± 0.044
- NP40-soluble protein abundance (concentration: 0.5mM): 1.01 ± 0.041
- NP40-soluble protein abundance (concentration: 1mM): 0.954 ± 0.037
- NP40-soluble protein abundance (concentration: 2mM): 0.948 ± 0.068
- NP40-soluble protein abundance (concentration: 4mM): 0.954 ± 0.061
- NP40-soluble protein abundance (concentration: 6mM): 0.948 ± 0.076
- NP40-soluble protein abundance (concentration: 8mM): 0.973 ± 0.07
- NP40-soluble protein abundance (concentration: 10mM): 0.94 ± 0.046

Target: PHF2 (UniProt O75151)
- NP40-soluble protein abundance (concentration: 0.1mM): 0.968 ± 0.1
- NP40-soluble protein abundance (concentration: 0.5mM): 1.03 ± 0.076
- NP40-soluble protein abundance (concentration: 1mM): 1.06 ± 0.095
- NP40-soluble protein abundance (concentration: 2mM): 1.08 ± 0.17
- NP40-soluble protein abundance (concentration: 4mM): 1.07 ± 0.11
- NP40-soluble protein abundance (concentration: 6mM): 1.16 ± 0.16
- NP40-soluble protein abundance (concentration: 8mM): 1.18 ± 0.1
- NP40-soluble protein abundance (concentration: 10mM): 1.32 ± 0.17

Target: SASH3 (UniProt O75995)
- NP40-soluble protein abundance (concentration: 0.1mM): 0.954 ± 0.059
- NP40-soluble protein abundance (concentration: 0.5mM): 0.955 ± 0.056
- NP40-soluble protein abundance (concentration: 1mM): 0.939 ± 0.099
- NP40-soluble protein abundance (concentration: 2mM): 0.886 ± 0.14
- NP40-soluble protein abundance (concentration: 4mM): 0.847 ± 0.16
- NP40-soluble protein abundance (concentration: 6mM): 0.865 ± 0.14
- NP40-soluble protein abundance (concentration: 8mM): 0.845 ± 0.12
- NP40-soluble protein abundance (concentration: 10mM): 0.855 ± 0.11

Target: SNRNP200 (UniProt O75643)
- NP40-soluble protein abundance (concentration: 0.1mM): 1.04 ± 0.073
- NP40-soluble protein abundance (concentration: 0.5mM): 1.14 ± 0.12
- NP40-soluble protein abundance (concentration: 1mM): 1.08 ± 0.12
- NP40-soluble protein abundance (concentration: 2mM): 1.18 ± 0.17
- NP40-soluble protein abundance (concentration: 4mM): 1.25 ± 0.22
- NP40-soluble protein abundance (concentration: 6mM): 1.33 ± 0.23
- NP40-soluble protein abundance (concentration: 8mM): 1.36 ± 0.24
- NP40-soluble protein abundance (concentration: 10mM): 1.37 ± 0.2
